Measurements as given in the supplement of paper PMC10849652.
Some of the results follow.

Amino acid sequences for entries named in this document (tags omitted). A change or cut given only in a name is not applied to a line headed by its entry.
UniProt Q8WW38: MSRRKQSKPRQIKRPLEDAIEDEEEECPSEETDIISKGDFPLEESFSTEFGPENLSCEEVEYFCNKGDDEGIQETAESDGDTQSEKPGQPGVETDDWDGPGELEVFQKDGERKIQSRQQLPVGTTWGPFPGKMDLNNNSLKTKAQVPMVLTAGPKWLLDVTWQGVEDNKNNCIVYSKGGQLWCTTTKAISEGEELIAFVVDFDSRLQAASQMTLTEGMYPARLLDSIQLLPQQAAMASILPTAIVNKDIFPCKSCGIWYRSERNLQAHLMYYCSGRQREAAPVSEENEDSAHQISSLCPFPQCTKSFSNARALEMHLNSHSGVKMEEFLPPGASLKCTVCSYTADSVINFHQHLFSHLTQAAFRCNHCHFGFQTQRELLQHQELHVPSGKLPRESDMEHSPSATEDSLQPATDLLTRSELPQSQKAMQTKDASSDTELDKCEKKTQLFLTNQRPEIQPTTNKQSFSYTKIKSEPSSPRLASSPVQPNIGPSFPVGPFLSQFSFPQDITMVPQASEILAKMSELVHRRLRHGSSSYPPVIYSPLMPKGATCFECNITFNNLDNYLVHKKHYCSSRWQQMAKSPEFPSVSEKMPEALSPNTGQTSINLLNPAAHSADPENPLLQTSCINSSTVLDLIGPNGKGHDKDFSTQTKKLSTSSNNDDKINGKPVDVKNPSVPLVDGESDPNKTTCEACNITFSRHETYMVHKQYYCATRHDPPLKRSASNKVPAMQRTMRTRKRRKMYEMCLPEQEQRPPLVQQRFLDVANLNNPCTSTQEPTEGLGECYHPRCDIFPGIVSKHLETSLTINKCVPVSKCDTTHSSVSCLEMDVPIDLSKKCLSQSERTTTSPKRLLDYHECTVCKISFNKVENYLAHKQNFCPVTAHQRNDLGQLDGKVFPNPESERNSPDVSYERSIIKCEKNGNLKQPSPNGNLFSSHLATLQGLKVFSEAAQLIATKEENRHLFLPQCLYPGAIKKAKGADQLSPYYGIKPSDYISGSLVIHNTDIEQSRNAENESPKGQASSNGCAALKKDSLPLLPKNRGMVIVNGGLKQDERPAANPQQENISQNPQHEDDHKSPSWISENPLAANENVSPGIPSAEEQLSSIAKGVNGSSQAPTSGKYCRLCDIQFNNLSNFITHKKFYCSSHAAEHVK
UniProt Q8IWR0: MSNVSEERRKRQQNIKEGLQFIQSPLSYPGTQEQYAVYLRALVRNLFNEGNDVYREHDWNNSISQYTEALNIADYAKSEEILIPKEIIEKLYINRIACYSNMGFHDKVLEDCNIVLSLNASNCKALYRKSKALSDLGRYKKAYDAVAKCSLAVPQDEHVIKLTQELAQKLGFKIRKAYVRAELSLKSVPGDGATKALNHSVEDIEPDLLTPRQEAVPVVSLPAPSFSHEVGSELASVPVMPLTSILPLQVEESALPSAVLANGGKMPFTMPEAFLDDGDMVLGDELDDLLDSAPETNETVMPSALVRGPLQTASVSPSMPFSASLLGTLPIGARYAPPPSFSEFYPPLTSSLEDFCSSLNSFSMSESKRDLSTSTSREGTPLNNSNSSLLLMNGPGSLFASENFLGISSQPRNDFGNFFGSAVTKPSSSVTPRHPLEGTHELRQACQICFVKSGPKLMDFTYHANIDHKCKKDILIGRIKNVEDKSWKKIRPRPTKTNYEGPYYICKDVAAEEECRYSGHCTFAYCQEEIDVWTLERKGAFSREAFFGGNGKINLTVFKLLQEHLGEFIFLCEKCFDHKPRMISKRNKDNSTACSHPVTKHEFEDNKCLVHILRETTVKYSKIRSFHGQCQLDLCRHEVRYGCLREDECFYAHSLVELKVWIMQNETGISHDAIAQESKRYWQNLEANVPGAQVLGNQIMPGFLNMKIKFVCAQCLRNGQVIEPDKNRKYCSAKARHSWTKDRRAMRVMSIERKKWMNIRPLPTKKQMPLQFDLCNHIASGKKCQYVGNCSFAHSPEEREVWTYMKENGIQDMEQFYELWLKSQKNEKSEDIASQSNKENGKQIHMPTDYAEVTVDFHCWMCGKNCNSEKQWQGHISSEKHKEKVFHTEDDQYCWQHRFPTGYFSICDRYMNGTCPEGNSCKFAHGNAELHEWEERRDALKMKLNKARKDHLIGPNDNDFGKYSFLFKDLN
UniProt Q9C0D7: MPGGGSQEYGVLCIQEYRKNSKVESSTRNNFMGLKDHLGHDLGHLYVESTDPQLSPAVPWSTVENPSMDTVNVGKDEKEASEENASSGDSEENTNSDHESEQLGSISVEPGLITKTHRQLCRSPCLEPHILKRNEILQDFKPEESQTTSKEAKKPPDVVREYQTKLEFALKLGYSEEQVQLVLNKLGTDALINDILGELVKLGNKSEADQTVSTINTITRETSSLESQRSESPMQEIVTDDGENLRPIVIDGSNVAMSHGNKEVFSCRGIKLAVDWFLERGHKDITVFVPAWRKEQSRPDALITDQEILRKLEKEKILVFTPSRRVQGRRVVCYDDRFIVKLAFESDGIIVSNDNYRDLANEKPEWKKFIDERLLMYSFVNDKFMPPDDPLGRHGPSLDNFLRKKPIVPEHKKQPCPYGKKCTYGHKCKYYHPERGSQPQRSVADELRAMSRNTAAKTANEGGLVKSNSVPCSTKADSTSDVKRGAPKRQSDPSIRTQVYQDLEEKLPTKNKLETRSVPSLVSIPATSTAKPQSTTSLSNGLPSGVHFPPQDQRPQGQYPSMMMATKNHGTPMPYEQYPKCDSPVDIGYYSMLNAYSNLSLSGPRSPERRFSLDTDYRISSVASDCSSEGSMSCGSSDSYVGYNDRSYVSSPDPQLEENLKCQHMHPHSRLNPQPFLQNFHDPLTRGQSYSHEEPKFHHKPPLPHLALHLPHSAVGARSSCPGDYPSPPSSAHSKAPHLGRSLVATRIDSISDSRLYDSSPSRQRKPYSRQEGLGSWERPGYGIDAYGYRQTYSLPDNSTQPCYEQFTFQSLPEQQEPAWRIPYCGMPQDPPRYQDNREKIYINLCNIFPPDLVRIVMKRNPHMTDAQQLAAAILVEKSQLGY
UniProt Q8IUH5: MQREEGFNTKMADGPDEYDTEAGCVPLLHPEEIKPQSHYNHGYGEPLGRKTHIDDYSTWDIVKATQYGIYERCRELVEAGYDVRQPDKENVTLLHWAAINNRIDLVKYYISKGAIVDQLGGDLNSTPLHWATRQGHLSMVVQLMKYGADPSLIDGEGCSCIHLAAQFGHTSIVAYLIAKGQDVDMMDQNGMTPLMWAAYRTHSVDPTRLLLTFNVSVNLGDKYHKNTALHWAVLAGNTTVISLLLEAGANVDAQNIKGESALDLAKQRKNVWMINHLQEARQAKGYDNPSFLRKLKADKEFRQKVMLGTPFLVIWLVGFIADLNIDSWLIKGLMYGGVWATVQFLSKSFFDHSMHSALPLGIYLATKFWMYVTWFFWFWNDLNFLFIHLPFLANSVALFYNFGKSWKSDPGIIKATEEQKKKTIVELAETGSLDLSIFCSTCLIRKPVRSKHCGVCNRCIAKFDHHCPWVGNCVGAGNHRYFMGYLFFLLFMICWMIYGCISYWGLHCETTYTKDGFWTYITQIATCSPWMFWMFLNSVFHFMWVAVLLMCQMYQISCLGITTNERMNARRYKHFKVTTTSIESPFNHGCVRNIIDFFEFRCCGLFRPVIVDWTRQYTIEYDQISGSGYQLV
UniProt Q9NRH1: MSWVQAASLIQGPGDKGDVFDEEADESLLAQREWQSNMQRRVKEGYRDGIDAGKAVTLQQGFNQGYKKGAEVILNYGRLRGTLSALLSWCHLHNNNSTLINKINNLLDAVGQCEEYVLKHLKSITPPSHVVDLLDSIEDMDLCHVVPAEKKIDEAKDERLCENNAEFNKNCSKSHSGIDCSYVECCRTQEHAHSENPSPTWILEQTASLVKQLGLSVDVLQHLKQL
UniProt P37275: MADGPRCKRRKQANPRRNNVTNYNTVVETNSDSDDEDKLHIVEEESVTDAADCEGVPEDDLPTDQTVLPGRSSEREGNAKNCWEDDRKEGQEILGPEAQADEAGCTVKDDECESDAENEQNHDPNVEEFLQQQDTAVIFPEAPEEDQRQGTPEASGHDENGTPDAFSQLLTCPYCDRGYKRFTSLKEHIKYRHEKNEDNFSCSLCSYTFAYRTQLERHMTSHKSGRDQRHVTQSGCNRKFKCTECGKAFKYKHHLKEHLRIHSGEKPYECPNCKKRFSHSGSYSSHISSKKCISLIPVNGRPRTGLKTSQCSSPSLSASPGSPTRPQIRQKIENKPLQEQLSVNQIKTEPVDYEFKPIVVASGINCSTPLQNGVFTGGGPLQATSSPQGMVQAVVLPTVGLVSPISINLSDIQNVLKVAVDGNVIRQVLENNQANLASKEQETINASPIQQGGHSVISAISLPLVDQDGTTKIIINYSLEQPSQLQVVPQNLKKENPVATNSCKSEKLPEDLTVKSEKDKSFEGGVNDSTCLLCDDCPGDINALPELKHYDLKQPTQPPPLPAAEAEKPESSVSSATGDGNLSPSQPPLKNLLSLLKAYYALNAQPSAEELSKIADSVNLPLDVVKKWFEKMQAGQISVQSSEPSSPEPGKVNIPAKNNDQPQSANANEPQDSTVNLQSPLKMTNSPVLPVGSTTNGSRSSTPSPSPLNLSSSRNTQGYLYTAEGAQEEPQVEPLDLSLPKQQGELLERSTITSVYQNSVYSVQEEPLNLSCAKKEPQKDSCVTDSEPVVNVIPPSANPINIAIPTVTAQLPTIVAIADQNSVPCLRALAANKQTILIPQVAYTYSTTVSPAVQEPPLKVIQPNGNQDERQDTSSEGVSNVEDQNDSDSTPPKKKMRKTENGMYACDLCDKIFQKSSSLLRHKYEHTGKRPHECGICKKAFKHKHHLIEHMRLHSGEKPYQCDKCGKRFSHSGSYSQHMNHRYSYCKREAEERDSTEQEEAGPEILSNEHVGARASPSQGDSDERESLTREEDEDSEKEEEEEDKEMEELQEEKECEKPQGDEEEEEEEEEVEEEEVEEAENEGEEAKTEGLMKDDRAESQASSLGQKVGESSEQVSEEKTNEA
UniProt O95625: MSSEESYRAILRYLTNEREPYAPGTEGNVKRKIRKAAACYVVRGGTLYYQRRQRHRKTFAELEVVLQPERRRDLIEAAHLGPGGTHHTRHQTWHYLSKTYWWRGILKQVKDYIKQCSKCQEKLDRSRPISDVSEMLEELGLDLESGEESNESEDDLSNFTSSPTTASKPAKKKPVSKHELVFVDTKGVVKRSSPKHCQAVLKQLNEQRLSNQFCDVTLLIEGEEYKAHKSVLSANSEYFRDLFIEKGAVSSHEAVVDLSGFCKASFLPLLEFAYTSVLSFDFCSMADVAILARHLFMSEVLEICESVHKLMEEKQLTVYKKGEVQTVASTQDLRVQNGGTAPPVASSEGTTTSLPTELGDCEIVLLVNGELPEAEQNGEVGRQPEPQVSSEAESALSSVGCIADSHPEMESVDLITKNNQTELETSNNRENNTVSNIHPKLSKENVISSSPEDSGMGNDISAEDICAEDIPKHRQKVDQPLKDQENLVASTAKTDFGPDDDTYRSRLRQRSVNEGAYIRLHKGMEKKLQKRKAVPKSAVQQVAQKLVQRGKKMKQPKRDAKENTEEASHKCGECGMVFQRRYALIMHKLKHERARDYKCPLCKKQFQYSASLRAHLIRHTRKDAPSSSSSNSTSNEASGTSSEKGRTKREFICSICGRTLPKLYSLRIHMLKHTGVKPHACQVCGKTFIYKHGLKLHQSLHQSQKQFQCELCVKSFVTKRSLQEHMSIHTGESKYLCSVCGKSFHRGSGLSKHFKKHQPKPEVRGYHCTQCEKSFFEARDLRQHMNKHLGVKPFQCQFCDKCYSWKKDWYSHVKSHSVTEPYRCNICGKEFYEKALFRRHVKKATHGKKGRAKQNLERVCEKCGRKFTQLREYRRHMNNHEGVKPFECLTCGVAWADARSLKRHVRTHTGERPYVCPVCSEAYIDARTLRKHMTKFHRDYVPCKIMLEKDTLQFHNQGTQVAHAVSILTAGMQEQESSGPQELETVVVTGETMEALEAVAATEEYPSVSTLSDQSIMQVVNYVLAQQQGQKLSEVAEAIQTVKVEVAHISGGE
UniProt A6NM28: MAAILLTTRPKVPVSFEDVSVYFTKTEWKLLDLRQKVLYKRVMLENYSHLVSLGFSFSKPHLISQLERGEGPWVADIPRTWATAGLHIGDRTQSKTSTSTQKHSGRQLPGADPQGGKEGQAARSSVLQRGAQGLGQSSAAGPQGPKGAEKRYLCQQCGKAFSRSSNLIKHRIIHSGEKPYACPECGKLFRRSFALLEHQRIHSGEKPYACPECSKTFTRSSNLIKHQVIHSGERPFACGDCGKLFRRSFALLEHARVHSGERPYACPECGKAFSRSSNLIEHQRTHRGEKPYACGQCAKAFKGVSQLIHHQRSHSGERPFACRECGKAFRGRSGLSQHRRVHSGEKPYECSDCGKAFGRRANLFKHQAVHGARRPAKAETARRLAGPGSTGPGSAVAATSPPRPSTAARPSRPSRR

What was measured:
Assay in all cases: log2 fold change, soluble protein after heating vs DMSO (PISA); higher = thermal stabilisation; K562 lysate, 10 uM; active = over 0.2 and 3.5 SD of the protein, either way, in both replicates (recomputed)
[1] = compound: CCCS(=O)(=O)Nc1ccc(F)c(C(=O)c2c[nH]c3ncc(-c4ccc(Cl)cc4)cc23)c1F [vemurafenib]
Method in brief: (§1)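 Thermal stability, expressed as log-two fold change relative to solvent controls, is given from duplicates. Crude K562 extract in PBS pH 7.4 with 1 mM MgCl2, at 1 mg/mL protein, was treated with 10 μM compound for 30 min and heated in aliquots for 3 min across 48°C-58°C. After pooling, adjustment to 0.5% NP-40 at 4°C and centrifugation at 21,000xg for 90 min, supernatant protein was measured by TMTpro 16plex LC-MS/MS with channel sums equalised.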

[2] = compound: CCN(CCCOc1ccc2c(Nc3cc(CC(=O)Nc4cccc(F)c4)[nH]n3)ncnc2c1)CCOP(=O)(O)O [barasertib]
Method in brief: as §1

[3] = compound: CC[C@@H]1C(=O)N(C)c2cnc(Nc3ccc(C(=O)NC4CCN(C)CC4)cc3OC)nc2N1C1CCCC1
Method in brief: as §1

[4] = compound: CCn1cc(-c2ccnc3[nH]c(-c4cccc(CN(C)C)c4)cc23)c(-c2ccc(NC(=O)N(C)C)cc2)n1
Method in brief: as §1

[5] = compound: CN1CCC(CNc2ccc3ncc(-c4cccc(OC(F)(F)F)c4)n3n2)CC1
Method in brief: as §1

[6] = compound: CN1CCN(CCOc2cc(OC3CCOCC3)c3c(Nc4c(Cl)ccc5c4OCO5)ncnc3c2)CC1 [saracatinib]
Method in brief: as §1

[7] = compound: CN1CCN(c2nc(C3=C(c4c[nH]c5ccccc45)C(=O)NC3=O)c3ccccc3n2)CC1 [sotrastaurin]
Method in brief: as §1

[8] = compound: CN1CC[C@H](c2c(O)cc(O)c3c(=O)cc(-c4ccccc4Cl)oc23)[C@H](O)C1 [alvocidib]
Method in brief: as §1

[9] = compound: CNC(=O)C1=CC=CC=C1NC2=NC(=NC=C2Cl)NC3=C(C=C(C=C3)N4CCOCC4)OC
Method in brief: as §1

[10] = compound: CNC(=O)c1ccc(Nc2ncc(C(F)(F)F)c(NCc3nccnc3N(C)S(C)(=O)=O)n2)cc1 [defactinib]
Method in brief: as §1

[11] = compound: CNc1nc(-c2ccc3c(N)n[nH]c3c2)cc(N2C[C@@H](C(=O)NC3CCCCC3)CC[C@H]2C)n1
Method in brief: as §1

[12] = compound: COC(=O)N[C@@H](C)CNc1nccc(-c2cn(C(C)C)nc2-c2cc(Cl)cc(NS(C)(=O)=O)c2F)n1 [encorafenib]
Method in brief: as §1

[13] = compound: COC(=O)[C@H](CCSC)NC(=O)C1=C(C=C(C=C1)NC[C@H](CS)N)C2=CC=CC=C2
Method in brief: as §1

[14] = compound: CCCS(=O)(=O)Nc1ccc(F)c(C(=O)c2c[nH]c3ncc(Cl)cc23)c1F
Method in brief: as §1

[15] = compound: CC[C@@H]1C(=O)N(C)c2cnc(Nc3ccc(C(=O)N[C@H]4CC[C@H](N5CCN(CC6CC6)CC5)CC4)cc3OC)nc2N1C(C)C [volasertib]
Method in brief: as §1

[16] = compound: CCn1c(C(=O)N(C2CC2)C2CC2)cc2c3c(ncn3C)c(Nc3cc(C)n(C)n3)nc21
Method in brief: as §1

[17] = compound: CN1CCc2c(c3ccccc3n2Cc2ccc(C(=O)NO)cc2)C1 [Tubastatin A]
Method in brief: as §1

[18] = compound: COc1cc2nc(-c3cc(F)ccc3O)nc(N[C@@H]3CNC[C@H]3C(C)(C)O)c2cc1OC
Method in brief: as §1

[19] = compound: COc1cc(Nc2ncc3c(n2)-c2ccc(Cl)cc2C(c2c(F)cccc2OC)=NC3)ccc1C(=O)O [alisertib]
Method in brief: as §1

[20] = compound: COc1cc2ncnc(Nc3ccc(F)c(Cl)c3)c2cc1OCCCN1CCOCC1 [gefitinib]
Method in brief: as §1

Measured: log2 fold change

ZFPM2 (UniProt Q8WW38)
inactive: [1] -0.06 | [2] -0.334 | [3] -0.111 | [4] -0.024 | [5] -0.004 | [6] 0.102 | [7] 0.095 | [8] 0.066 | [9] 0.069 | [10] 0.07 | [11] -0.018 | [12] -0.187 | [13] 0.07

ZDHHC13 (UniProt Q8IUH4)
inactive: [1] 0.172 | [2] 0.06 | [4] 0.071 | [5] -0.22 | [6] 0.255 | [8] 0 | [9] 0.014 | [10] 0.03 | [11] 0.122

ZBTB1 (UniProt Q9Y2K1)
inactive: [14] -0.014 | [2] 0.197 | [3] 0.078 | [15] 0.256 | [16] -0.063 | [4] -0.007 | [5] -0.087 | [8] -0.133 | [17] -0.035 | [9] 0.081 | [12] 0.111 | [13] 0.094 | [18] 0.237

XRCC1 (UniProt F5H8D7)
inactive: [1] 0.147 | [2] -0.051 | [3] -0.101 | [6] -0.121 | [9] -0.31 | [10] 0.378 | [11] 0.157 | [12] 0.031 | [13] -0.043

ZBTB5 (UniProt O15062)
inactive: [1] 0.109 | [3] 0.063 | [16] 0.004 | [6] -0.006 | [7] 0.066 | [17] -0.02 | [9] -0.003 | [10] 0.2 | [11] 0.038 | [12] 0.234 | [13] 0.063

ZBTB40 (UniProt Q9NUA8)
inactive: [1] 0.06 | [14] -0.076 | [15] 0.029 | [16] -0.014 | [4] -0.127 | [5] 0.095 | [6] -0.017 | [7] -0.012 | [8] 0.09 | [17] -0.089 | [9] 0.03 | [10] -0.032 | [11] 0.048 | [19] -0.187 | [18] -0.038 | [20] -0.246

ZCCHC4 (UniProt Q9H5U6)
inactive: [1] 0.136 | [3] -0.226 | [4] -0.146 | [5] 0.225 | [6] -0.087 | [8] -0.082 | [10] -0.012 | [11] 0.221 | [12] -0.28 | [13] 0.156 | [19] 0.081 | [20] 0.044

ZFYVE26 (UniProt Q68DK2)
inactive: [1] -0.135 | [14] 0.072 | [2] -0.151 | [15] 0 | [16] 0.184 | [7] -0.073 | [17] 0.009 | [9] -0.001 | [10] 0.087 | [19] 0.02 | [18] 0.043 | [20] 0.026

ZBTB2 (UniProt Q8N680)
inactive: [1] 0.05 | [2] -0.198 | [3] 0.061 | [16] 0.023 | [4] 0.139 | [5] -0.062 | [6] 0.004 | [7] 0.063 | [8] -0.005 | [17] 0.043 | [9] -0.093 | [10] 0.031 | [11] 0.02 | [12] -0.011 | [13] 0.118 | [19] -0.027 | [20] -0.012

ZC3H7A (UniProt Q8IWR0)
inactive: [1] -0.021 | [2] 0.004 | [3] 0.057 | [16] 0.057 | [4] -0.121 | [5] -0.229 | [6] -0.044 | [7] -0.046 | [8] 0.172 | [17] -0.106 | [9] 0 | [10] 0.053 | [11] -0.048 | [12] 0.153 | [13] -0.029 | [19] 0.063 | [20] 0.01

XRCC3 (UniProt O43542)
inactive: [1] 0.032 | [2] 0.012 | [16] 0.109 | [4] 0.029 | [5] 0.044 | [6] 0.025 | [7] 0.052 | [8] -0.123 | [17] -0.026 | [9] -0.059 | [10] 0.18 | [11] 0.093 | [19] -0.048 | [20] -0.024

ZG16B (UniProt Q96DA0)
inactive: [14] -0.313 | [2] -0.263 | [3] 0.088 | [15] -0.282 | [16] 0.372 | [4] 0.539 | [5] -0.322 | [7] -0.029 | [8] -0.07 | [17] 2.23 | [9] -0.075 | [12] -0.056 | [13] 0.272 | [19] 0.062 | [18] 1.4 | [20] 0.239

ZC3H12C isoform 2 (UniProt Q9C0D7)
inactive: [14] -0.138 | [2] 0.106 | [15] -0.09 | [16] 0.148 | [4] -0.013 | [5] 0.139 | [6] -0.17 | [7] -0.012 | [8] -0.252 | [17] -0.147 | [9] -0.057 | [11] -0.026 | [18] -0.204

ZDHHC17 (UniProt Q8IUH5)
inactive: [1] 0.058 | [14] 0.047 | [3] 0.077 | [15] -0.071 | [16] 0.166 | [4] -0.346 | [5] 0.141 | [6] 0.205 | [7] 0.117 | [8] -0.44 | [17] 0.074 | [10] -0.053 | [11] -0.04 | [12] -0.044 | [13] 0.183 | [19] 0.037 | [18] -0.032 | [20] 0.24

YAE1 (UniProt Q9NRH1)
inactive: [1] 0.029 | [2] 0.097 | [3] 0.017 | [16] -0.021 | [4] 0.022 | [5] 0.069 | [6] -0.017 | [7] 0.038 | [8] -0.005 | [17] 0.062 | [9] 0.079 | [10] 0.092 | [11] 0.001 | [12] -0.12 | [13] -0.021 | [19] -0.038 | [20] 0.096

Looked up one by one from above (two):
ZCCHC4 (UniProt Q9H5U6)
inactive: [1] 0.136 | [3] -0.226 | [4] -0.146 | [5] 0.225 | [6] -0.087 | [8] -0.082 | [10] -0.012 | [11] 0.221 | [12] -0.28 | [13] 0.156 | [19] 0.081 | [20] 0.044

ZC3H12C isoform 2 (UniProt Q9C0D7)
inactive: [14] -0.138 | [2] 0.106 | [15] -0.09 | [16] 0.148 | [4] -0.013 | [5] 0.139 | [6] -0.17 | [7] -0.012 | [8] -0.252 | [17] -0.147 | [9] -0.057 | [11] -0.026 | [18] -0.204

Next part.

ZDHHC14 (UniProt Q8IZN3)
inactive: [1] 0.102 | [14] 0.033 | [3] 0.024 | [15] 0.012 | [16] -0.075 | [4] 0.009 | [5] 0.037 | [6] 0.01 | [7] -0.068 | [8] 0.066 | [17] 0.067 | [10] -0.025 | [11] 0.018 | [12] -0.018 | [13] 0.019 | [19] 0.013 | [18] 0.026 | [20] -0.074

ZBTB48 (UniProt P10074)
inactive: [1] -0.07 | [6] 0.005 | [10] -0.018 | [11] 0.067

ZEB1 isoform 2 (UniProt P37275)
inactive: [1] 0.029 | [14] 0.058 | [2] 0.245 | [15] 0.009 | [16] 0.047 | [4] -0.015 | [5] -0.201 | [6] 0.115 | [7] 0.084 | [8] -0.057 | [17] 0.019 | [9] -0.099 | [10] 0.057 | [11] -0.076 | [18] -0.039

ZFP64 isoform 5 (UniProt Q9NTW7)
inactive: [14] 0.113 | [2] 0.01 | [3] 0.023 | [15] 0.179 | [16] 0.062 | [4] -0.086 | [5] 0.179 | [7] -0.113 | [8] -0.051 | [17] -0.133 | [12] -0.019 | [13] -0.028 | [18] -0.083

ZBTB11 (UniProt O95625)
inactive: [1] 0.141 | [14] -0.31 | [15] 0.045 | [4] -0.019 | [5] -0.134 | [7] 0.029 | [8] -0.03 | [9] 0.152 | [10] -0.067 | [19] 0.08 | [18] -0.172 | [20] -0.05

ZFP92 (UniProt A6NM28)
inactive: [1] 0.166 | [3] 0.066 | [10] 0.288 | [12] 0.136 | [13] 0.05

ZBED4 (UniProt O75132)
inactive: [1] 0.052 | [10] -0.141

YWHAZ (UniProt E7EX29)
inactive: [14] -0.178 | [2] 0.148 | [3] -0.102 | [15] -0.027 | [12] 0.07 | [13] 0.019 | [18] 0.069

ZDHHC4 (UniProt Q9NPG8)
inactive: [14] -0.106 | [2] -0.047 | [15] -0.074 | [16] 0.101 | [4] 0.113 | [5] 0.013 | [6] 0.183 | [7] -0.002 | [8] 0.159 | [17] 0.061 | [9] -0.153 | [11] -0.017 | [19] -0.25 | [18] 0.093 | [20] -0.203
